From article doi:10.1101/2022.07.07.499247
No constants are given. Whether binding was seen depends on the method and setting. For part of these data: In cells and extracts the contact can be indirect. Some entries that bind do so weakly or less than the wild type.

The chains behind the UniProt entries cited, without tags or fusion partners.
UniProt Q7KQL5: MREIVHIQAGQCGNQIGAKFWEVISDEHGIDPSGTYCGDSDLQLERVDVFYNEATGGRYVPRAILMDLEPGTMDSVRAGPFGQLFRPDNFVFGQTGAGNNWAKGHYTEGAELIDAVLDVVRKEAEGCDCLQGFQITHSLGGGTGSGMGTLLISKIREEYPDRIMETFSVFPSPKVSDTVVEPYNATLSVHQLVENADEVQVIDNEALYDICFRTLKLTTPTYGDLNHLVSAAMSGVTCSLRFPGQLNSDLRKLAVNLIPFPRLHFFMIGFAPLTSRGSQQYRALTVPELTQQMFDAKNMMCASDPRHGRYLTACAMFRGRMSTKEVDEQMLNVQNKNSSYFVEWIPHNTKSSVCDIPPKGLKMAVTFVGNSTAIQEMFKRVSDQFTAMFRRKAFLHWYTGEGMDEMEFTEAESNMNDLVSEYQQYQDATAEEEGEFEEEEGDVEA

Experiments:
[1] = target: recombinant beta tubulin of Plasmodium falciparum (Plasmodium falciparum) (UniProt Q7KQL5); experiment: MST
[2] = target: recombinant beta tubulin of Plasmodium falciparum (Plasmodium falciparum) (UniProt Q7KQL5); experiment: ELISA
[3] = target: endogenous beta tubulin in Plasmodium falciparum parasite lysate (Plasmodium falciparum (endogenous in parasite lysate)) (UniProt Q7KQL5); experiment: co-IP

B1: recombinant Plasmodium falciparum cold shock protein PfCoSP (PF3D7_0109600) (protein, UniProt Q8I248 1-150)
chain: MLRRKIHIHFNSYKKHFFSQLINKEKHDKITGNVIMFDKRKGYGFIKPNDGGPDIFVHYTDICQSRTFEVTNEEKKKLAWNANMDITQKKEEYNFEYDNNNNNNNNKHNKKKEEIKKEFKYLVPGERVKFSVIYDEKSNSSKAINVDYID
Q: What does the source list for B1?
A: binding [1]: binds; binding [2]: binds

B2: endogenous PfCoSP in Plasmodium falciparum parasite lysate (protein, UniProt Q8I248 1-150)
chain: B1 chain
Q: B2 was tested. Which binding [3] did it give?
A: binds
